In article PMC10881398, “O-glycosylation of the transcription factor SPATULA promotes style development in Arabidopsis” (Nature Plants, 2024) one finds binding data, which are given here for three molecules.

What all share (assay): two-hybrid; yeast AH109; SEC and SPY as bait (BD), SPT as prey (AD); growth on SD/−Ade/−His/−Leu/−Trp and with 2.5 mM 3-AT, serial dilutions, five days at 28 °C
Test [1] has as its target T1, HEC1, yeast two-hybrid fusion (Arabidopsis thaliana) (UniProt Q9FHA7).
T1 sequence: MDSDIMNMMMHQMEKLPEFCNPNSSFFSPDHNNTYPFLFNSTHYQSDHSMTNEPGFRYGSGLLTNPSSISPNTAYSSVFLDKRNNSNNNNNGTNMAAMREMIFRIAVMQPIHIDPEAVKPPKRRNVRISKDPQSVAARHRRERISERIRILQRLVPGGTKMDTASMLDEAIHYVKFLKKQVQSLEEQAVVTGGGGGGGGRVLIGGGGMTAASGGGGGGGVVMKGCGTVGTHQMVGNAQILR

Test [2] addresses T2, SPY full length, yeast two-hybrid bait (BD) (Arabidopsis thaliana) (UniProt Q96301).
T2 sequence: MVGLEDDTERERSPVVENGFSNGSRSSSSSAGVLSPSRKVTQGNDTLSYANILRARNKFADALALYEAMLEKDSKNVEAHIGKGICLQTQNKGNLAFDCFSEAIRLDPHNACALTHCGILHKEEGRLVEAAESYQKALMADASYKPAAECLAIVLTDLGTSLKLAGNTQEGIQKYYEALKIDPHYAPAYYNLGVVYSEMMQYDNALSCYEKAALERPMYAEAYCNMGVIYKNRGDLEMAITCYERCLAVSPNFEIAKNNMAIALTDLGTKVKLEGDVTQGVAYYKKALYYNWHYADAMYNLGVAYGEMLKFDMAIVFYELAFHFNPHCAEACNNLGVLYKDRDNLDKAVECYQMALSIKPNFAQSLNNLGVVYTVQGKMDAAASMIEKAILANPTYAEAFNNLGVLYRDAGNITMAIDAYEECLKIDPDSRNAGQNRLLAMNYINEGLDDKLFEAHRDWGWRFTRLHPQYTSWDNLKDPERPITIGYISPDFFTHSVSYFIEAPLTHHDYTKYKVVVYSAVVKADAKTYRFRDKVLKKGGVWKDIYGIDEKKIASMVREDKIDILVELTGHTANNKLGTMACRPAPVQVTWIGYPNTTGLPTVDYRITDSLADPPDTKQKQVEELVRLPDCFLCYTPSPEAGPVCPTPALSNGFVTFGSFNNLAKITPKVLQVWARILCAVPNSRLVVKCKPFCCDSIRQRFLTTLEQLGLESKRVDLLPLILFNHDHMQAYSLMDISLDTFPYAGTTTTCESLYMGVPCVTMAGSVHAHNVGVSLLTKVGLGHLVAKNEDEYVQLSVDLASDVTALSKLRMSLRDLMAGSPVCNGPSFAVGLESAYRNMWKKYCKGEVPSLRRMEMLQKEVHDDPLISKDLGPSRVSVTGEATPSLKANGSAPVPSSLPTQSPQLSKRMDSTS

Test [3] has as its target T3, SEC full length, yeast two-hybrid bait (BD) (Arabidopsis thaliana) (UniProt Q9M8Y0).
T3 sequence: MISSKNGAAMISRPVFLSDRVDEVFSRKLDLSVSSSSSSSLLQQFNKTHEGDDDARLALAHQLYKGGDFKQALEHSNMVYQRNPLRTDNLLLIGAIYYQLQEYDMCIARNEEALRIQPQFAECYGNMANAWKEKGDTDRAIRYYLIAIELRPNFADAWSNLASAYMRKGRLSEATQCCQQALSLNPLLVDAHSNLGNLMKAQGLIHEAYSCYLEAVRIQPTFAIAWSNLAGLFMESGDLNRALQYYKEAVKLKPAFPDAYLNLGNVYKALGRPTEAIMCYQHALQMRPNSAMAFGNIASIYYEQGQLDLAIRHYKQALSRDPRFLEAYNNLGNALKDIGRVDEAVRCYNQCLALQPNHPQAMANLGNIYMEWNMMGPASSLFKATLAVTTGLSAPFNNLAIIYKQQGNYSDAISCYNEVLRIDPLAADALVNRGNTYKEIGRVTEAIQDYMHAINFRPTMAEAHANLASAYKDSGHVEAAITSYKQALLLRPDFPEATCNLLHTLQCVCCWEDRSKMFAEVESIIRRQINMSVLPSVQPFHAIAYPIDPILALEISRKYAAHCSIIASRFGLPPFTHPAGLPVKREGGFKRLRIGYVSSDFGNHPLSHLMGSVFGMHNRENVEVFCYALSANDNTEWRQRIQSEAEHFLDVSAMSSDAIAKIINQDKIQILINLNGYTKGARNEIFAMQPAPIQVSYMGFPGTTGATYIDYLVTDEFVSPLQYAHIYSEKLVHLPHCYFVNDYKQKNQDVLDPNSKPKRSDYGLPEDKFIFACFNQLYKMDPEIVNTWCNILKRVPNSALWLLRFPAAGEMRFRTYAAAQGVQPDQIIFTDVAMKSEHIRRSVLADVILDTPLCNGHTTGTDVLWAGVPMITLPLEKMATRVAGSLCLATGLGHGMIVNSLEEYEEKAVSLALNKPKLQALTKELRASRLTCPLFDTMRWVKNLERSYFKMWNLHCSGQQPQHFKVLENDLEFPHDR

These are yes or no findings as the source states them, for the method shown. Some binding calls cover weakened binding; strength is not graded here. Tags and fused reporters may be left off the sequences shown.

B1: SPT N-terminal domain (residues 1–180), yeast two-hybrid prey (AD) (domain or fragment, UniProt Q9FUA4 1-180)
chain: MISQREEREEKKQRVMGDKKLISSSSSSSVYDTRINHHLHHPPSSSDEISQFLRHIFDRSSPLPSYYSPATTTTTASLIGVHGSGDPHADNSRSLVSHHPPSDSVLMSKRVGDFSEVLIGGGSGSAAACFGFSGGGNNNNVQGNSSGTRVSSSSVGASGNETDEYDCESEEGGEAVVDEA
Consider B1, for which the binding entry in test [1] is “no binding”; in test [2], “binds”; in test [3], “binds”.

B2: SPT fragment containing only the AH domain (residues 1–135), yeast two-hybrid prey (AD) (domain or fragment, UniProt Q9FUA4 1-135)
chain: MISQREEREEKKQRVMGDKKLISSSSSSSVYDTRINHHLHHPPSSSDEISQFLRHIFDRSSPLPSYYSPATTTTTASLIGVHGSGDPHADNSRSLVSHHPPSDSVLMSKRVGDFSEVLIGGGSGSAAACFGFSGG
With B2, the binding entry in test [1] is listed as “no binding”; in test [2], “binds”; in test [3] it was “binds”.

B3: SPT C-terminal truncation (residues 136–373), yeast two-hybrid prey (AD) (domain or fragment, UniProt Q9FUA4 136-373)
chain: GNNNNVQGNSSGTRVSSSSVGASGNETDEYDCESEEGGEAVVDEAPSSKSGPSSRSSSKRCRAAEVHNLSEKRRRSRINEKMKALQSLIPNSNKTDKASMLDEAIEYLKQLQLQVQMLTMRNGINLHPLCLPGTTLHPLQLSQIRPPEATNDPLLNHTNQFASTSNAPEMINTVASSYALEPSIRSHFGPFPLLTSPVEMSREGGLTHPRLNIGHSNANITGEQALFDGQPDLKDRIT
B3: the values for the binding entry in test [1], in test [2] and in test [3] were “binds”, “no binding” and “binds”, respectively.
